Data source: PubChem BioAssay AID1259308 (NCATS, 2017)
Here is a random part of about 59,000 reagents. Over the whole deposit, about 1,510 (2.6%) are marked active. 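Calls use total luciferase alone and ignore viability, so some active siRNAs may act by altering cell number.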 Reagents against one gene are numbered here. Further read-outs or replicates are left out here. No sequences are given here.

Screen: 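Genes whose loss raises luciferase production in HEK293 cells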 (primary screen)
Cell system: human HEK293 embryonic kidney cells stably expressing firefly luciferase (HEK-CMV-Luc2-Hygro)
Reagents: single siRNA against human genes, 0.8 pmol siRNA per well
Timing: 72 h
Measurement: 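Reporter luminescence and viable-cell signal on separate replicate plates, given as percent of non-targeting control and median/MAD z-scores, plus per-cell luciferase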
Direction: total luciferase, z-score: higher = more reporter protein produced
Call rule: 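An siRNA counts as active if its total luciferase robust z-score exceeds 3; genes with two or more such siRNAs out of three were retested with fresh siRNAs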
Calls: active = raised luciferase; inactive = no rise

gene knocked down,siRNA no.,"total luciferase, z-score",outcome
TTC3,1,0.0197,inactive
TTC3,2,-0.402,inactive
TTC3,3,-1.47,inactive
DEFB123,1,0.0095,inactive
DEFB123,2,-0.427,inactive
DEFB123,3,0.057,inactive
TMEM220,1,-2.17,inactive
TMEM220,2,-0.187,inactive
TMEM220,3,-0.543,inactive
ATG14,1,1.95,inactive
ATG14,2,-0.8,inactive
ATG14,3,-0.605,inactive
TAOK2,1,-0.63,inactive
TAOK2,2,0.274,inactive
TAOK2,3,-0.271,inactive
CACNG4,1,-0.293,inactive
CACNG4,2,-0.535,inactive
CACNG4,3,-0.672,inactive
PRPS1L1,1,-0.394,inactive
PRPS1L1,2,-0.0941,inactive
PRPS1L1,3,-0.164,inactive
USP38,1,1.06,inactive
USP38,2,1.18,inactive
USP38,3,1.27,inactive
KCNC4,1,0.72,inactive
KCNC4,2,0.446,inactive
KCNC4,3,-1.94,inactive
KRTCAP3,1,0.553,inactive
KRTCAP3,2,-0.113,inactive
KRTCAP3,3,-0.627,inactive
DND1,1,0.56,inactive
DND1,2,1.19,inactive
DND1,3,-0.048,inactive
KRTAP19-4,1,0.0669,inactive
KRTAP19-4,2,-0.813,inactive
KRTAP19-4,3,-0.79,inactive
C1RL,1,0.0144,inactive
C1RL,2,-1.55,inactive
C1RL,3,1.61,inactive
MTAP,1,0.857,inactive
MTAP,2,0.594,inactive
MTAP,3,0.764,inactive
RNF41,1,-0.0166,inactive
RNF41,2,-0.339,inactive
RNF41,3,-0.54,inactive
RNASE13,1,0.633,inactive
RNASE13,2,-2.14,inactive
RNASE13,3,1.42,inactive
TM4SF20,1,-1.1,inactive
TM4SF20,2,1.07,inactive
TM4SF20,3,-2.03,inactive
ZNF324,1,-0.469,inactive
ZNF324,2,0.713,inactive
ZNF324,3,0.0676,inactive
SRD5A2,1,-0.69,inactive
SRD5A2,2,-0.0245,inactive
SRD5A2,3,-1.07,inactive

Part of the list above in another layout.
gene knocked down	siRNA no.	total luciferase, z-score	outcome
KCNC4	3	-1.94	inactive
KRTCAP3	1	0.553	inactive
KRTCAP3	2	-0.113	inactive
KRTCAP3	3	-0.627	inactive
DND1	1	0.56	inactive
DND1	2	1.19	inactive
DND1	3	-0.048	inactive
KRTAP19-4	1	0.0669	inactive
